Data taken from article PMC4652184.
These are yes or no findings as the source states them, for the method shown. Binding seen in cells or lysates may run through a third protein. Some results given as binding are weak or reduced against the parent protein; the word gives no strength.

Chains of the proteins cited; added tags and fusions are not shown. Residues count along the entry.
UniProt Q9Y6N7, residues 26-1651: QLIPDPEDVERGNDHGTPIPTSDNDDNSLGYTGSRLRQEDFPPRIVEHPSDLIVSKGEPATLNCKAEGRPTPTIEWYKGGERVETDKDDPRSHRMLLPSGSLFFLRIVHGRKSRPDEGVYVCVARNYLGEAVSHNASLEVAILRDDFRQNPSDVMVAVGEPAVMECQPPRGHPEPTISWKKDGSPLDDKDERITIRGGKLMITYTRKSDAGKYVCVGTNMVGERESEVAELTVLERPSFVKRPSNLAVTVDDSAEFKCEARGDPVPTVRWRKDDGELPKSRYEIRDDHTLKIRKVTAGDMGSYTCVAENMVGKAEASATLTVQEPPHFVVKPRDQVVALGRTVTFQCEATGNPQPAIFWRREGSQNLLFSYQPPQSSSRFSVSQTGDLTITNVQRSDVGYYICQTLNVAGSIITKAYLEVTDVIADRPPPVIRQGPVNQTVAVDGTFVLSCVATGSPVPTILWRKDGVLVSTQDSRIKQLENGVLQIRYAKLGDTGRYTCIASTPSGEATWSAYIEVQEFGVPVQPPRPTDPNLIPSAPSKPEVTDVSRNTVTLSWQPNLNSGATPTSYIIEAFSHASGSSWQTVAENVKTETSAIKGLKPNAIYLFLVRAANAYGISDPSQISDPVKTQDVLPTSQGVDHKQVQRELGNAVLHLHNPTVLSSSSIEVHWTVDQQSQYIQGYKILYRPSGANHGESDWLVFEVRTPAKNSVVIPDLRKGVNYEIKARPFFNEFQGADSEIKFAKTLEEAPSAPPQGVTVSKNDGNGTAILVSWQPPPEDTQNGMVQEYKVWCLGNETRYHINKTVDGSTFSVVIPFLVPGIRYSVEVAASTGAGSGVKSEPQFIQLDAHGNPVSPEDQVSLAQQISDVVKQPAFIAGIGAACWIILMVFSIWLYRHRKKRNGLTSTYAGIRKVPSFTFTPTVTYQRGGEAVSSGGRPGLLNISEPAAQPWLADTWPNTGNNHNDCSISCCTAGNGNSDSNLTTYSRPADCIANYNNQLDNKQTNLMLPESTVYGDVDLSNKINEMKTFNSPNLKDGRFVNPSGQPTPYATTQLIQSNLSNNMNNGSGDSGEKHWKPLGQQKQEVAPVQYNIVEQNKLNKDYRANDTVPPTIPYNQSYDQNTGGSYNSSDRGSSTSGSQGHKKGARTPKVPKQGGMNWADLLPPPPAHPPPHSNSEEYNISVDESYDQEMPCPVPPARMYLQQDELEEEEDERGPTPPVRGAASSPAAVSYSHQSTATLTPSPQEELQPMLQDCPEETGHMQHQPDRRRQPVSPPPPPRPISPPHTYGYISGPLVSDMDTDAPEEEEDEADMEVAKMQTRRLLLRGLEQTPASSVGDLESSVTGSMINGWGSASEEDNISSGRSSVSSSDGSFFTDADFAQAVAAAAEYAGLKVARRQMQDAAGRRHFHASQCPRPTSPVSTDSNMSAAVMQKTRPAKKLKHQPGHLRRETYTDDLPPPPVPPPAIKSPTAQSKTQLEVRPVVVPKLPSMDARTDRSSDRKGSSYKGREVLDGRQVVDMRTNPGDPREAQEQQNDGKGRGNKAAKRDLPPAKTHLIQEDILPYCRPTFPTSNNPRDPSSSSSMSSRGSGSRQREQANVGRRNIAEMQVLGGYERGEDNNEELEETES

Biological target: T1, Flightless-1 (Fli1) (human (endogenous in monocyte-derived dendritic cells)) (UniProt Q13045)
T1 sequence: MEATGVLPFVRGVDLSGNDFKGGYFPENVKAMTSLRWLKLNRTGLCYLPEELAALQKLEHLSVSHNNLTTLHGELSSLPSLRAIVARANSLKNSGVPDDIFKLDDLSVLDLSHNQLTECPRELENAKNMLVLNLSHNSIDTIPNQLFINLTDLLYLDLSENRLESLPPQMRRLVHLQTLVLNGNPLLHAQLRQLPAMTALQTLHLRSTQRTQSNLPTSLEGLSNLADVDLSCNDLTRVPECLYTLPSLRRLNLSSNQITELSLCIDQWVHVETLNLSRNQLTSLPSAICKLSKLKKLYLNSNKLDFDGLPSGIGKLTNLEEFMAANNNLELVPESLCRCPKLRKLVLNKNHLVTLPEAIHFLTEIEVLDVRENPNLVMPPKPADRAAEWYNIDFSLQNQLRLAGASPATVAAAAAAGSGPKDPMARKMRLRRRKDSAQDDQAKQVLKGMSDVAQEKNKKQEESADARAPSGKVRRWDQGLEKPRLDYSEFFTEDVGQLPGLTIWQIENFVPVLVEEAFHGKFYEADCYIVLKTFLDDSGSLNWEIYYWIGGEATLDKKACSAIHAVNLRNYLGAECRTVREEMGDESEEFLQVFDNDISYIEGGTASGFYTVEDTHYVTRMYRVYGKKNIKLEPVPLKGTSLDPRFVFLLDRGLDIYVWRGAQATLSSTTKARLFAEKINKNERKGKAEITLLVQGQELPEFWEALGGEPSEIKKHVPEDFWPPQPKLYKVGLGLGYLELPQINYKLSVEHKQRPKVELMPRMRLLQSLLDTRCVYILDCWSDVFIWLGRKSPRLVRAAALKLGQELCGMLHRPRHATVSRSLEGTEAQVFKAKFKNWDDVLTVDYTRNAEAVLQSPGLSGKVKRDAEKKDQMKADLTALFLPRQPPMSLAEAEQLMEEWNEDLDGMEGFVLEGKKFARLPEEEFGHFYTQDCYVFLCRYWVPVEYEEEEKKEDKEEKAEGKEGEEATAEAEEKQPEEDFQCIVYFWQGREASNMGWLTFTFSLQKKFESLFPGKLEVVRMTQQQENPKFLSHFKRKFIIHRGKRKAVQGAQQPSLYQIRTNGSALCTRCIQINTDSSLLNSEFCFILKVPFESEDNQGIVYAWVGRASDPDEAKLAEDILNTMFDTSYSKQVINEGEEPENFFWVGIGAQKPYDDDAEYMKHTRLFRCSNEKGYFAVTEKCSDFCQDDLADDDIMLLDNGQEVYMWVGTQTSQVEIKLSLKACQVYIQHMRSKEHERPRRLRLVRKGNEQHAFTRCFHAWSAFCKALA
Assay: co-IP; endogenous proteins from DC lysates (cell lysis buffer, Cell Signaling Technology), Western blot; DCs untreated or transduced with control (VC) or Slit2N adenovirus, with or without HIV-1 BaL (1 h or overnight)

“Roundabout receptor 1 (Robo1) (from UniProt Q9Y6N7 26-1651)” was tested, and the binding was “binds”.
